Results are given in words; binding and its absence hold for the method and conditions named. Some entries that bind do so weakly or less than the wild type. One block for each binder: values may come before it.
How the values were obtained:
[1] = target: T1, DnaC (of the co-purified DnaC/I complex) (B. subtilis 168) (UniProt P37469); assay: co-purification; DnaC/I complex co-purified for the phosphorylation assay; bait, tag and conditions not told
T1 sequence: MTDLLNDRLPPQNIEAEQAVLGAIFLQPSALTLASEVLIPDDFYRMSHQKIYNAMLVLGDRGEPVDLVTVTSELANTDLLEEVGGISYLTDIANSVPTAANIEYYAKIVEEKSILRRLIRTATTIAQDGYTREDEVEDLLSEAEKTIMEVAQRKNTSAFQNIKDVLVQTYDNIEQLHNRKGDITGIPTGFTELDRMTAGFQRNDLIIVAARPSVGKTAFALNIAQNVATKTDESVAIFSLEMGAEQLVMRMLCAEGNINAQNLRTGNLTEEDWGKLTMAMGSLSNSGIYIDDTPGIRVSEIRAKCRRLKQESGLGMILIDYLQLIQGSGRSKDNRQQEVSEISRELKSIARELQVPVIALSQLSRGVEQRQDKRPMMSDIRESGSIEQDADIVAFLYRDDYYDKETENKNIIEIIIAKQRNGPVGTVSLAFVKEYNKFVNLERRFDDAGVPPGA

DnaC (B. subtilis) = target: T2, DnaC (B. subtilis) (UniProt P37469); assay: two-hybrid; Gal4 system in yeast PJ69-4A/PJ69-4α: BD baits (pGBDU-C1) mated with the AD-fusion B. subtilis genomic library (pGAD) or with AD fusions; growth on SC-LUH with 0.5 mM 3-aminotriazole and on SC-LUA at 30°C; hits retested in binary specificity matings
T2 sequence: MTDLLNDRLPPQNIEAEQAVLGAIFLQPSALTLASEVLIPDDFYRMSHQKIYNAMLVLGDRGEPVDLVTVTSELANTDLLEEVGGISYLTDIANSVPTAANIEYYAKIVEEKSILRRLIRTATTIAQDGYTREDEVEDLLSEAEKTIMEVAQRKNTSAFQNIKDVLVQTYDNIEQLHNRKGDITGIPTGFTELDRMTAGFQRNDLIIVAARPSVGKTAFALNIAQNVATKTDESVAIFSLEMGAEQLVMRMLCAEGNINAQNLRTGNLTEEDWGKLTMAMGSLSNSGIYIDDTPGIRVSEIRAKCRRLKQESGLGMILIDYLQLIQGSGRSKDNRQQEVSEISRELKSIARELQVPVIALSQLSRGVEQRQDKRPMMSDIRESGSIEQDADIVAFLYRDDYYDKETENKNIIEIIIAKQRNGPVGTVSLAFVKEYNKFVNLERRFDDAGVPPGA

SalA (B. subtilis 168) = target: T3, SalA (B. subtilis 168) (UniProt P50863); assay: as above
T3 sequence: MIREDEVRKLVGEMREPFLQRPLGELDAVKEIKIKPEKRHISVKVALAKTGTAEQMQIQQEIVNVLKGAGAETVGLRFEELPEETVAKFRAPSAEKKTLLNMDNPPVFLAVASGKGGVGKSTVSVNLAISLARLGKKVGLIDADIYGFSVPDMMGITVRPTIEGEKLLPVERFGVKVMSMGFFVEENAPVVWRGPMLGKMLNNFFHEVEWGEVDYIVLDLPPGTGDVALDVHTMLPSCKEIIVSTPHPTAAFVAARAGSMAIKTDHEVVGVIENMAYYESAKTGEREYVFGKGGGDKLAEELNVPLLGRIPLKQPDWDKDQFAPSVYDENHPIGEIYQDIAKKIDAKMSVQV

PtpZ (B. subtilis 168) = target: T4, PtpZ (B. subtilis 168) (UniProt P96717); assay: as above
T4 sequence: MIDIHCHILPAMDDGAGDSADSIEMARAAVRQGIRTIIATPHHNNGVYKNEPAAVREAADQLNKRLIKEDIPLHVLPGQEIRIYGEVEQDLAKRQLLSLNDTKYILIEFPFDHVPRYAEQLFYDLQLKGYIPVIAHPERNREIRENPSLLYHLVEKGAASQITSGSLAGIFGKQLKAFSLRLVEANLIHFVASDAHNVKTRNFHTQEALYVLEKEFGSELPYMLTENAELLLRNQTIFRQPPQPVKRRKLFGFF

PrkD (B. subtilis) = target: T5, PrkD (B. subtilis) (UniProt O31435); assay: as above
T5 sequence: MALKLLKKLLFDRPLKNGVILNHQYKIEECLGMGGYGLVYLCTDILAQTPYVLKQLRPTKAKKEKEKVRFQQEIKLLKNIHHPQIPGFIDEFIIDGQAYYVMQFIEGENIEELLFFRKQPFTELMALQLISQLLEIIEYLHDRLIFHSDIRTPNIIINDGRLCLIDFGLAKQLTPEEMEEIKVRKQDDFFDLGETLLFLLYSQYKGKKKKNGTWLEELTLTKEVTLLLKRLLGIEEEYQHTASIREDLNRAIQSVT

SpoIIE (B. subtilis 168) = target: T6, SpoIIE (B. subtilis 168) (UniProt P37475); assay: as above
T6 sequence: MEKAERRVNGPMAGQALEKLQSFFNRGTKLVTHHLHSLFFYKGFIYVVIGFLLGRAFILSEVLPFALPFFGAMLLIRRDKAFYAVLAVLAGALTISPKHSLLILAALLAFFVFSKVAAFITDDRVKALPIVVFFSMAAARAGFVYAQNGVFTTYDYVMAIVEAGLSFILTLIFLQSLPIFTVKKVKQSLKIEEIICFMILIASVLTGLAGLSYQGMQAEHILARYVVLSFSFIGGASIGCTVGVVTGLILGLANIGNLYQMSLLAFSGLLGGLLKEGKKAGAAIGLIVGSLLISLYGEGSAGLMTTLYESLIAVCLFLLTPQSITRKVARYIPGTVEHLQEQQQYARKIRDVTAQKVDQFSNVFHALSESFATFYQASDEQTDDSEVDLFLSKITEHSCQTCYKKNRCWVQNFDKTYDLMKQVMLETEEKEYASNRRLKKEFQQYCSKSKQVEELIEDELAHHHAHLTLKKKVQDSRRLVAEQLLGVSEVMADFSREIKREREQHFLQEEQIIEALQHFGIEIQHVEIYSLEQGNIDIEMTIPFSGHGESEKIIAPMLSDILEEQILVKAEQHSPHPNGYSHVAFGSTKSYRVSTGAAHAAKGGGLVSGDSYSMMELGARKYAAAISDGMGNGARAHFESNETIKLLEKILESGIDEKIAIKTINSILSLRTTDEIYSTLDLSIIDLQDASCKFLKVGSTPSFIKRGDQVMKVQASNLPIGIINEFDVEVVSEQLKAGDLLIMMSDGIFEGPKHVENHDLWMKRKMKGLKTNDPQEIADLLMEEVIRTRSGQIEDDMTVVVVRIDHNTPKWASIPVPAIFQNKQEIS

MinD (B. subtilis 168) = target: T7, MinD (B. subtilis 168) (UniProt Q01464); assay: as above
T7 sequence: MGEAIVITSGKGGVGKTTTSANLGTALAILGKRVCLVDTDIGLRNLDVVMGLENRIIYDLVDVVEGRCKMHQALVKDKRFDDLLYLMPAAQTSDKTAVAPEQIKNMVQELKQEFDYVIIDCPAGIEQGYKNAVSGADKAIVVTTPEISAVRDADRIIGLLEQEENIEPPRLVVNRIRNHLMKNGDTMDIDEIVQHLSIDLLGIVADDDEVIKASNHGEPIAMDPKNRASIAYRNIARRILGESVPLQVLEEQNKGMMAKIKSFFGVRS

binding [1]: binds
B1: DnaI (of the co-purified DnaC/I complex) (protein, UniProt P06567 1-311)
chain: MEPIGRSLQGVTGRPDFQKRLEQMKEKVMKDQDVQAFLKENEEVIDQKMIEKSLNKLYEYIEQSKNCSYCSEDENCNNLLEGYHPKLVVNGRSIDIEYYECPVKRKLDQQKKQQSLMKSMYIQQDLLGATFQQVDISDPSRLAMFQHVTDFLKSYNETGKGKGLYLYGKFGVGKTFMLAAIANELAEKEYSSMIVYVPEFVRELKNSLQDQTLEEKLNMVKTTPVLMLDDIGAESMTSWVRDEVIGTVLQHRMSQQLPTFFSSNFSPDELKHHFTYSQRGEKEEVKAARLMERILYLAAPIRLDGENRRHP

binding (PtpZ (B. subtilis 168)): binds
B5: MinD (protein, UniProt Q01464 1-268)
chain: MGEAIVITSGKGGVGKTTTSANLGTALAILGKRVCLVDTDIGLRNLDVVMGLENRIIYDLVDVVEGRCKMHQALVKDKRFDDLLYLMPAAQTSDKTAVAPEQIKNMVQELKQEFDYVIIDCPAGIEQGYKNAVSGADKAIVVTTPEISAVRDADRIIGLLEQEENIEPPRLVVNRIRNHLMKNGDTMDIDEIVQHLSIDLLGIVADDDEVIKASNHGEPIAMDPKNRASIAYRNIARRILGESVPLQVLEEQNKGMMAKIKSFFGVRS

binding (PtpZ (B. subtilis 168)): binds | binding (MinD (B. subtilis 168)): binds
B6: YabT (enzyme, UniProt P37562 1-338)
chain: MMNDALTSLACSLKPGTTIKGKWNGNTYTLRKQLGKGANGIVYLAETSDGHVALKVSDDSLSITSEVNVLKSFSKAQSVTMGPSFFDTDDAYIPSANTKVSFYAMEYIKGPLLLKYVSDKGAEWIPVLMIQLLSSLSVLHQQGWIFGDLKPDNLIVTGPPARIRCIDVGGTTKEGRAIKEYTEFYDRGYWGYGTRKAEPSYDLFAVAMIMINSVHKKEFKKTNQPKEQLRSLIEGNPLLQKYKKALFSALNGDYQSADEMKKDMLDAGQKAAQRKQPIKASPQPATRQRQQKPRQGKITKTRYTPKQKPAKSGGLFETTLIVISVLALYFAYIIFFLI

Further lines, the binder ahead of its results:

B2: PrkD (enzyme, UniProt O31435 1-256)
chain: MALKLLKKLLFDRPLKNGVILNHQYKIEECLGMGGYGLVYLCTDILAQTPYVLKQLRPTKAKKEKEKVRFQQEIKLLKNIHHPQIPGFIDEFIIDGQAYYVMQFIEGENIEELLFFRKQPFTELMALQLISQLLEIIEYLHDRLIFHSDIRTPNIIINDGRLCLIDFGLAKQLTPEEMEEIKVRKQDDFFDLGETLLFLLYSQYKGKKKKNGTWLEELTLTKEVTLLLKRLLGIEEEYQHTASIREDLNRAIQSVT
binding (DnaC (B. subtilis)): binds | binding (SalA (B. subtilis 168)): binds

B3: RsbT (enzyme, UniProt P42411 1-133)
chain: MNDQSCVRIMTEWDIVAARQLGRNVAKELGFGTVDQARITTAISELARNIYLYAGKGQIGIEQVADRGKKGLKIIAEDQGPGIPDIRKVMEDGFSTSGGLGAGLPGVKRLMDEFSLNSVAGEGTEIQAIKWLR
binding (PtpZ (B. subtilis 168)): binds | binding (PrkD (B. subtilis)): binds

B4: DegS (enzyme, UniProt P13799 1-385)
chain: MNKTKMDSKVLDSILMKMLKTVDGSKDEVFQIGEQSRQQYEQLVEELKQIKQQVYEVIELGDKLEVQTRHARNRLSEVSRNFHRFSEEEIRNAYEKAHKLQVELTMIQQREKQLRERRDDLERRLLGLQEIIERSESLVSQITVVLNYLNQDLREVGLLLADAQAKQDFGLRIIEAQEEERKRVSREIHDGPAQMLANVMMRSELIERIFRDRGAEDGFQEIKNLRQNVRNALYEVRRIIYDLRPMALDDLGLIPTLRKYLYTTEEYNGKVKIHFQCIGETEDQRLAPQFEVALFRLAQEAVSNALKHSESEEITVKVEITKDFVILMIKDNGKGFDLKEAKEKKNKSFGLLGMKERVDLLEGTMTIDSKIGLGTFIMIKVPLSL
binding (SpoIIE (B. subtilis 168)): binds
